{"sequences": {"note": "The chains behind the UniProt entries cited, without tags or fusion partners. Where a name states a change or a piece, a line headed by the entry shows the natural chain unless it says otherwise.", "UniProt Q8NG08": "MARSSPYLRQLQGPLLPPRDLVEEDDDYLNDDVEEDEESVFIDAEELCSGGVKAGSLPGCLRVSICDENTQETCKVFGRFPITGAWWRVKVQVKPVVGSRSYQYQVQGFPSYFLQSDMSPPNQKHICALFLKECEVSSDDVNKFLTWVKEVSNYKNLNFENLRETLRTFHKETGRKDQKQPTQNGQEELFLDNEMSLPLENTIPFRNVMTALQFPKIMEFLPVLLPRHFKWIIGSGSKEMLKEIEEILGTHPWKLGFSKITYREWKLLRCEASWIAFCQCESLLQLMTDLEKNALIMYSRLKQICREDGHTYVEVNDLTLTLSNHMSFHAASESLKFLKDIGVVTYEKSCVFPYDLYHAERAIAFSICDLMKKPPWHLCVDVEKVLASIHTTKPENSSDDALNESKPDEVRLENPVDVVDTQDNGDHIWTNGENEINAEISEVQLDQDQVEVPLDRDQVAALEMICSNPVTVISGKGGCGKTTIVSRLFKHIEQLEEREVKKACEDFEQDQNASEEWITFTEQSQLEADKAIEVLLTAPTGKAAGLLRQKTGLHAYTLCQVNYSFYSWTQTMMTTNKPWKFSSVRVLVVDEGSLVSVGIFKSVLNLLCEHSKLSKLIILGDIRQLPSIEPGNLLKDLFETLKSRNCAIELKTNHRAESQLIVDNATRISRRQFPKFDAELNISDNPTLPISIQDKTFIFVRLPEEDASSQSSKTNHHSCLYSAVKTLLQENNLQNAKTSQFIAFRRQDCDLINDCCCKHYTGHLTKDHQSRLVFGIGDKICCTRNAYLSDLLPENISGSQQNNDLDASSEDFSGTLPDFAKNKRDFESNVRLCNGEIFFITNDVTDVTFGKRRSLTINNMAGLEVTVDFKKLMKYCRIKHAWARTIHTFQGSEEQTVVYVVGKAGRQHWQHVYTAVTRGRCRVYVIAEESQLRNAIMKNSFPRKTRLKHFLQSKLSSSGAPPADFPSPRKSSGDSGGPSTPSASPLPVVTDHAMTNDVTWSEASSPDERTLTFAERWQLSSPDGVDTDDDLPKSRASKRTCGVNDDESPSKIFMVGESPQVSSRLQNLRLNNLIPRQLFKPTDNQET"}, "source": "patent US20070212707A1", "about": "“CELL CYCLE MARKERS” (GE HEALTHCARE UK LIMITED, priority 2004, published 2007)", "key": {"cyclin E (human) [1]": {"target": "cyclin E (human) (UniProt P24864)", "assay": "co-immunoprecipitation with anti-FLAG agarose from transfected U2OS cell extracts, western blot"}, "cyclin E (human) [2]": {"target": "cyclin E (human) (UniProt P24864)", "assay": "co-immunoprecipitation from U2OS cell extracts (FIG. 9)"}, "cyclin E (human) [3]": {"target": "cyclin E (human) (UniProt P24864)", "assay": "co-immunoprecipitation with anti-FLAG agarose from transfected U2OS cell extracts, western blot with anti-cyclin E"}}, "note": "Results are given in words; binding and its absence hold for the method and conditions named. In cells and extracts the contact can be indirect. Some results given as binding are weak or reduced against the parent protein; the word gives no strength.", "data": [{"substance": "FLAG-HDHB-S967A (from UniProt Q8NG08 1-1087)", "values": [{"measurement": "binding", "setting": "cyclin E (human) [1]", "value": "binds"}]}, {"substance": "FLAG-HDHB (from UniProt Q8NG08 1-1087)", "values": [{"measurement": "binding", "setting": "cyclin E (human) [2]", "value": "binds"}, {"measurement": "binding", "setting": "cyclin E (human) [3]", "value": "binds"}]}]}
